From publication PMC12574955, “The Ync13–Rga7–Rng10 complex selectively coordinates secretory vesicle trafficking and secondary septum formation during cytokinesis” (PLOS Biology, 2025)
No constants are given. Whether binding was seen depends on the method and setting. For some of these results: Binding seen in cells or lysates may run through a third protein. Some results given as binding are weak or reduced against the parent protein; the word gives no strength. Tags and fused reporters may be left off the sequences shown.

T1: Smi1-mEGFP (Schizosaccharomyces pombe) (UniProt O14362)
T1 sequence: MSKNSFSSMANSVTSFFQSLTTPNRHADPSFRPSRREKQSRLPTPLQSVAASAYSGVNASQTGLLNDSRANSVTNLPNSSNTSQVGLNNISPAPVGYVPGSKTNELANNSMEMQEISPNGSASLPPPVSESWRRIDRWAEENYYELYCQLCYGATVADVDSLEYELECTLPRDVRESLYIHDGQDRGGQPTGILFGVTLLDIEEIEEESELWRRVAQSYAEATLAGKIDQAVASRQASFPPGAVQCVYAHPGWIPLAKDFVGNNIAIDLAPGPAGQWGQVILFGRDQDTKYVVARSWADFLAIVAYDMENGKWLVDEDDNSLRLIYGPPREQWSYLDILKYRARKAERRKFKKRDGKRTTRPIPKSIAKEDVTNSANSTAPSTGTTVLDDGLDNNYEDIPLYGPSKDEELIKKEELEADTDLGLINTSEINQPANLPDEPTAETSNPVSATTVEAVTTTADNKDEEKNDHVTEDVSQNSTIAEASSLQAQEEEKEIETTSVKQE

T2: Ync13-mECitrine (Schizosaccharomyces pombe) (UniProt O13683)
T2 sequence: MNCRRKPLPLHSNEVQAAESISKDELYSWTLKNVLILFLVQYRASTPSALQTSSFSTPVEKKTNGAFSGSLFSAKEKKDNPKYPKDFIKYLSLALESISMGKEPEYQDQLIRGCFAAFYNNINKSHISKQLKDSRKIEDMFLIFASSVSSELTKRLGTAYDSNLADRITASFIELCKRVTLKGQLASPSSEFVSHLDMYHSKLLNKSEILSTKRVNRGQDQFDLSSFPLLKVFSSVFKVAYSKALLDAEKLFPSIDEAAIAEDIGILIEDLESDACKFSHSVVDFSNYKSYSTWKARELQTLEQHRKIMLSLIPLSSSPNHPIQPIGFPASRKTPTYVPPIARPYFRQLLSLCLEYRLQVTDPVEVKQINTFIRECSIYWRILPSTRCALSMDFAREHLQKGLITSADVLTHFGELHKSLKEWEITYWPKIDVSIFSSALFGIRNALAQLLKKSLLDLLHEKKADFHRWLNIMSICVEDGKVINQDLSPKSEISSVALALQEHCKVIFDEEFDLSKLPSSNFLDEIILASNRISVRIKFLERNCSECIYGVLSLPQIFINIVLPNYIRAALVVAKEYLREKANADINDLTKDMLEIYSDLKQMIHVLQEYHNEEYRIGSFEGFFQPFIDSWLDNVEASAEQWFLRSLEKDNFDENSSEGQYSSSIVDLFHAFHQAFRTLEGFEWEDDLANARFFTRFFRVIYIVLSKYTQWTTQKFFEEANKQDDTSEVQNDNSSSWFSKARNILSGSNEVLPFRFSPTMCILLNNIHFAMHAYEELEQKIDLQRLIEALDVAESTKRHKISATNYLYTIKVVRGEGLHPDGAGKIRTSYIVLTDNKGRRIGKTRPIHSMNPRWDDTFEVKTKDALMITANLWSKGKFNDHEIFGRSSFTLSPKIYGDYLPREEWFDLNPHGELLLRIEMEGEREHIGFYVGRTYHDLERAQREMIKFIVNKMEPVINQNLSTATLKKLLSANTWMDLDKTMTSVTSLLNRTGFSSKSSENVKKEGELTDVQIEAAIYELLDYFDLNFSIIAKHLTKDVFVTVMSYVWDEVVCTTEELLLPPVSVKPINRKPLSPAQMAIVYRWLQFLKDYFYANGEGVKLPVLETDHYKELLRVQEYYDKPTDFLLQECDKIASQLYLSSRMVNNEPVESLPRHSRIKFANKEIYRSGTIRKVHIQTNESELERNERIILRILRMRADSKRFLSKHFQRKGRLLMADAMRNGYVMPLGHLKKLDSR

T3: Rng10-mEGFP (Schizosaccharomyces pombe) (UniProt Q9P6L9)
T3 sequence: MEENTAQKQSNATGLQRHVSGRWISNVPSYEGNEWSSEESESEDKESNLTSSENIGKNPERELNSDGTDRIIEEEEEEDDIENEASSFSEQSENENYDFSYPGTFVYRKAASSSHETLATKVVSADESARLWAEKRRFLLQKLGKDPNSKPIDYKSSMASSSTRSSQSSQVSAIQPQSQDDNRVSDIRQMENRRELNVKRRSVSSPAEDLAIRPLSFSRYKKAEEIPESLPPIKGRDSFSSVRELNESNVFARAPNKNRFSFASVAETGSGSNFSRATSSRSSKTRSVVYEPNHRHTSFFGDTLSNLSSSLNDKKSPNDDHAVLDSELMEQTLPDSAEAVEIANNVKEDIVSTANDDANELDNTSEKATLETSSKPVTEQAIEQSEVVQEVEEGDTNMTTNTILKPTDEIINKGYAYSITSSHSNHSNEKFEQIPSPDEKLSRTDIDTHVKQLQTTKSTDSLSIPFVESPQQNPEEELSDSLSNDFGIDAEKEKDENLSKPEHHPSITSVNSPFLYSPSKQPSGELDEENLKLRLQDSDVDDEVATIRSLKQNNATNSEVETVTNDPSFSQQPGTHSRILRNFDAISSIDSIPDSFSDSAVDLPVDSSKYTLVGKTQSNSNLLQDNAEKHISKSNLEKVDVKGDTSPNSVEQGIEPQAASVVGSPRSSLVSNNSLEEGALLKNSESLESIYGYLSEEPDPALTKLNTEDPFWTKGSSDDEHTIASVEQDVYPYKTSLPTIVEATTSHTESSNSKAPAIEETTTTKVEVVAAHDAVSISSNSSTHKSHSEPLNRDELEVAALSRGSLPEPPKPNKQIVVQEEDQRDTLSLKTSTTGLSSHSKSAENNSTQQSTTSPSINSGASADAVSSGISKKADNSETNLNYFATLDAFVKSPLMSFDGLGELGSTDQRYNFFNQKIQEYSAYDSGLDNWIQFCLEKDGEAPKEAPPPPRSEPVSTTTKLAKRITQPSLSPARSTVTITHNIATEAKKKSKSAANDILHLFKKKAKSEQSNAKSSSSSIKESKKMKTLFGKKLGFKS

T4: Rga7-mEGFP (Schizosaccharomyces pombe) (UniProt O94466)
T4 sequence: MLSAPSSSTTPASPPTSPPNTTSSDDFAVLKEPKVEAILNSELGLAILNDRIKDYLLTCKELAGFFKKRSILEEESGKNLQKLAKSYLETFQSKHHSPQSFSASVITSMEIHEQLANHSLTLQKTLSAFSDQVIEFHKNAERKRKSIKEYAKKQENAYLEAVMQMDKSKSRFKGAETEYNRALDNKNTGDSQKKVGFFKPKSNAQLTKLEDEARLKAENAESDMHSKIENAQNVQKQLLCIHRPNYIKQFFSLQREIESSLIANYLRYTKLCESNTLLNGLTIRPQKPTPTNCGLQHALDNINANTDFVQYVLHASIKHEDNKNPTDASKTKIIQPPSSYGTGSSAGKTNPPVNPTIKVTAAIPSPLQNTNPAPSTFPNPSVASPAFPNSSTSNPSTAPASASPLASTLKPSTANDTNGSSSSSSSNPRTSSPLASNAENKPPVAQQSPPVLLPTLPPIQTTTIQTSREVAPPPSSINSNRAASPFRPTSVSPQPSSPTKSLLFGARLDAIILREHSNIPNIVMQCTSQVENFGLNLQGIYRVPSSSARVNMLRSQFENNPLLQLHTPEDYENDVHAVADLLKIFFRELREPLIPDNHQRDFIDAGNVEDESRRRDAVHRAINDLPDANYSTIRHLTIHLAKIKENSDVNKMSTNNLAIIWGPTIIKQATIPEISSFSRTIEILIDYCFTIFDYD


Tests used:
[1] = molecular target: T1, Smi1-mEGFP (Schizosaccharomyces pombe); assay: co-IP; S. pombe cell extracts, proteins under native promoters; polyclonal GFP antibody on protein G Dynabeads, 2 h at 4°C; IP buffer 50 mM HEPES pH 7.5, 150 mM NaCl, 1 mM EDTA, 0.1% NP-40; anti-Myc and anti-GFP blots
[2] = molecular target: T2, Ync13-mECitrine (Schizosaccharomyces pombe); assay: as above
[3] = molecular target: T3, Rng10-mEGFP (Schizosaccharomyces pombe); assay: ectopic mistargeting to mitochondria (Tom20-GBP); protein 1 tagged with mEGFP or mECitrine tethered to mitochondria by Tom20-GBP in live S. pombe cells; recruitment of tdTomato/mCherry/RFP-tagged protein 2 seen by confocal microscopy; Ync13 with Sec1 also tested in rng10Δ cells
[4] = molecular target: T4, Rga7-mEGFP (Schizosaccharomyces pombe); assay: as above

| binding [1] | binding [2] | binding [3] | binding [4] | Binder |
| --- | --- | --- | --- | --- |
| binds | binds | – | – | Rga7-13Myc (protein, UniProt O94466 1-695) MLSAPSSSTTPASPPTSPPNTTSSDDFAVLKEPKVEAILNSELGLAILNDRIKDYLLTCKELAGFFKKRSILEEESGKNLQKLAKSYLETFQSKHHSPQSFSASVITSMEIHEQLANHSLTLQKTLSAFSDQVIEFHKNAERKRKSIKEYAKKQENAYLEAVMQMDKSKSRFKGAETEYNRALDNKNTGDSQKKVGFFKPKSNAQLTKLEDEARLKAENAESDMHSKIENAQNVQKQLLCIHRPNYIKQFFSLQREIESSLIANYLRYTKLCESNTLLNGLTIRPQKPTPTNCGLQHALDNINANTDFVQYVLHASIKHEDNKNPTDASKTKIIQPPSSYGTGSSAGKTNPPVNPTIKVTAAIPSPLQNTNPAPSTFPNPSVASPAFPNSSTSNPSTAPASASPLASTLKPSTANDTNGSSSSSSSNPRTSSPLASNAENKPPVAQQSPPVLLPTLPPIQTTTIQTSREVAPPPSSINSNRAASPFRPTSVSPQPSSPTKSLLFGARLDAIILREHSNIPNIVMQCTSQVENFGLNLQGIYRVPSSSARVNMLRSQFENNPLLQLHTPEDYENDVHAVADLLKIFFRELREPLIPDNHQRDFIDAGNVEDESRRRDAVHRAINDLPDANYSTIRHLTIHLAKIKENSDVNKMSTNNLAIIWGPTIIKQATIPEISSFSRTIEILIDYCFTIFDYD |
| – | – | binds | binds | Trs120-tdTomato (protein, UniProt O14251 1-1210) MEFDFFSFVAPSRVQSLVLPFGRVRRKSFSSYLQLLRRVSHIQLSDVPVATATRKSSSFNPLAFPLGRLVYNFLTSLDDQQALLEEFEYFRRVFVLIGIVDGSEEQEVEQLCSTLDVWRRRIPHALVAKCIVFNCPEDKENIFNAPNIIIGPRSDFSINSVMRSILCDITAELLEGFSSLEFSIHARSVILSPITDMPHLAPLQRKNSNASIHSLGSSSRPTLTRTPSITSRSVNSVTERSKSLSKGRIENQFGQLYLLAGRVPNALKHFSTAIALSKATGDFLWQGLSLELFTVCLVIMAHLHVDVQIPPNILSMFPSYNDRLNAFGPLKFDALLNFITEMRNVVDQLYQKSTLQPNDAVPGLCFSESILRYAHLLTVVYSCKGFNDNALDHIIAQAPIRPVKKATTYVPNKATICQWIMRAQGQHLNSLSIRERCRIYGAMANMLGSIGFSRLRVKMLRELVASLTPVLLETRRQNASKNGIHPEVIASHTAQSFKSTHYCNILPLISEICQEYGLLKTDGSLLNPELTKWGWSNLQFDVLNELISLCDSLSDYRSILLLISLFFLTSVQTASSSQQISMFKAFRKTYLFASNAGIHINAPYWDPFMITDLKFIGSSENAELIHQRLRNGLPKSIEKGPFIYNPFNRRQDQNQSKSVLVVDEQVAFSIYFRNPLSVSVEVQDVHLETKGVSAKCSHSTFTMRPLSIERTTLTVTPTETGELHIVGCRVKVFGCEPILQYVYEAKDKHKSLHVYLEKSKDVNAELRSLDTIDHLWTYFPFKKDLKTKSFDCIVIASQPKLSLAFQNLTSGKFNFAEYETGELVYVIENTSFVEASHISVLFEDSSSKAFEQAIADKSITADRLYELQFEEFNLPTFTVESSQPFSLSPGERREIHIKIRAKPNSQEGLILFESSVHKPEDTEFYVRRLRIPVSLNISKRVDLKQWSAFMDTEGDPSYCLVLLNFYNHFSEPLFVTVKTASTDESRSVLIKPKADNVILFRLKRFIMSSEEINLDIPNLSTKQFVLSSGFKKSIEDSYTMKKRFWIKEYFLKEVQASWKTDDNLHHGEIYLRNHILSDEMANNLSILPIRIQAWVSYDSEKVTTVCPREPFKLVLEFFGHADTNMRYKISWTQLNTQANTSSFNGLILDGPEEDIVCFNNSKCHVVIERNMFAYTTGMYNIFVRIFNEELQLLSQPVDLDEPILLIVDAK |
